Our source for the binding values is PMC6610666.

Sequences of proteins named here, by UniProt entry; tags and fusion partners are left off.
UniProt Q8R0K9: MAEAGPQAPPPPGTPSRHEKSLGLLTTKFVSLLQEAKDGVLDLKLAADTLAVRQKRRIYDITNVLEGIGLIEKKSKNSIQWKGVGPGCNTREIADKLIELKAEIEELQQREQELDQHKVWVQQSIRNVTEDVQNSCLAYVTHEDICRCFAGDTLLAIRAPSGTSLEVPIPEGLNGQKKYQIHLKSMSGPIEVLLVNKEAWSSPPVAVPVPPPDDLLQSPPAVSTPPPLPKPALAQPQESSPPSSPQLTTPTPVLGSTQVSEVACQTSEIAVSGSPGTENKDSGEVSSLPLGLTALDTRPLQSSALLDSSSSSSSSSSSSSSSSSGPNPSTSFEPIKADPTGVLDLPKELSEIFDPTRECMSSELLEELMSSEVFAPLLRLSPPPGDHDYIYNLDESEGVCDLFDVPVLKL

No constants are given. Whether binding was seen depends on the method and setting. Binding seen in cells or lysates may run through a third protein. These calls come from enrichment with a bait or labelling near it, and not all partners need be listed.

In test [1] the target is LAP-tagged human E2F4 (human), Q16254. Nature of the test: affinity purification with mass spectrometry; LAP (EGFP, S tag)-tagged human E2F4 expressed in RPE cells (Flp-In system); tandem affinity purification; slices of the gel of the eluted fraction subjected to mass spectrometry. The settings on record: remark: other sources report otherwise.
Test [2] deals with LAP-tagged mouse E2F4 (mouse) (UniProt Q8R0K9). Nature of the test: affinity purification with mass spectrometry; LAP (EGFP, S tag)-tagged mouse E2F4 expressed by lentivirus in RB family TKO mESCs; tandem affinity purification; slices of the gel of the eluted fraction subjected to mass spectrometry.

B1: RB, P06400 1-928 (protein)
chain: MPPKTPRKTAATAAAAAAEPPAPPPPPPPEEDPEQDSGPEDLPLVRLEFEETEEPDFTALCQKLKIPDHVRERAWLTWEKVSSVDGVLGGYIQKKKELWGICIFIAAVDLDEMSFTFTELQKNIEISVHKFFNLLKEIDTSTKVDNAMSRLLKKYDVLFALFSKLERTCELIYLTQPSSSISTEINSALVLKVSWITFLLAKGEVLQMEDDLVISFQLMLCVLDYFIKLSPPMLLKEPYKTAVIPINGSPRTPRRGQNRSARIAKQLENDTRIIEVLCKEHECNIDEVKNVYFKNFIPFMNSLGLVTSNGLPEVENLSKRYEEIYLKNKDLDARLFLDHDKTLQTDSIDSFETQRTPRKSNLDEEVNVIPPHTPVRTVMNTIQQLMMILNSASDQPSENLISYFNNCTVNPKESILKRVKDIGYIFKEKFAKAVGQGCVEIGSQRYKLGVRLYYRVMESMLKSEEERLSIQNFSKLLNDNIFHMSLLACALEVVMATYSRSTSQNLDSGTDLSFPWILNVLNLKAFDFYKVIESFIKAEGNLTREMIKHLERCEHRIMESLAWLSDSPLFDLIKQSKDREGPTDHLESACPLNLPLQNNHTAADMYLSPVRSPKKKGSTTRVNSTANAETQATSAFQTQKPLKSTSLSLFYKKVYRLAYLRLNTLCERLLSEHPELEHIIWTLFQHTLQNEYELMRDRHLDQIMMCSMYGICKVKNIDLKFKIIVTAYKDLPHAVQETFKRVLIKEEEYDSIIVFYNSVFMQRLKTNILQYASTRPPTLSPIPHIPRSPYKFPSSPLRIPGGNIYISPLKSPYKISEGLPTPTKMTPRSRILVSIGESFGTSEKFQKINQMVCNSDRVLKRSAEGSNPPKPLKKLRFDIEGSDEADGSKHLPGESKFQQKLAEMTSTRTRMQKQKMNDSMDTSNKEEK
As to B1, the binding result in test [1] is recorded as “binds”.

B2: RanGAP1 (protein, UniProt P46061 1-589)
chain: MASEDIAKLAETLAKTQVAGGQLSFKGKGLKLNTAEDAKDVIKEIEEFDGLEALRLEGNTVGVEAARVIAKALEKKSELKRCHWSDMFTGRLRSEIPPALISLGEGLITAGAQLVELDLSDNAFGPDGVRGFEALLKSPACFTLQELKLNNCGMGIGGGKILAAALTECHRKSSAQGKPLALKVFVAGRNRLENDGATALAEAFGIIGTLEEVHMPQNGINHPGVTALAQAFAINPLLRVINLNDNTFTEKGGVAMAETLKTLRQVEVINFGDCLVRSKGAVAIADAVRGGLPKLKELNLSFCEIKRDAALVVAEAVADKAELEKLDLNGNALGEEGCEQLQEVMDSFNMAKVLASLSDDEGEDEDEEEEGEEDDEEEEDEEDEEDDDEEEEEQEEEEEPPQRGSGEEPATPSRKILDPNSGEPAPVLSSPTPTDLSTFLSFPSPEKLLRLGPKVSVLIVQQTDTSDPEKVVSAFLKVASVFRDDASVKTAVLDAIDALMKKAFSCSSFNSNTFLTRLLIHMGLLKSEDKIKAIPSLHGPLMVLNHVVRQDYFPKALAPLLLAFVTKPNGALETCSFARHNLLQTLYNI
Regarding B2, the binding entry in test [2] is listed as “binds”.
